In article PMC4745779:
These are yes or no findings as the source states them, for the method shown. In cells and extracts the contact can be indirect. Some entries that bind do so weakly or less than the wild type.

Sequences of proteins named here, by UniProt entry; tags and fusion partners are left off.
UniProt Q07812: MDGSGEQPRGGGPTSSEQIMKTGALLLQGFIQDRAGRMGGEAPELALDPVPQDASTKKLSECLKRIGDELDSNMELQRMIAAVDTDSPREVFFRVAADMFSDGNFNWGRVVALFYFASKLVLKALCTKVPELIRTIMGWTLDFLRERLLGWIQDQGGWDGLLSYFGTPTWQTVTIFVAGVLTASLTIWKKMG

Experiments:
[1] = molecular target: T1, PGAM5L (the long form of PGAM5) (human (endogenous in HCT116, SW480, Hela, A549)) (UniProt Q96HS1); test: co-IP; IP with anti-PGAM5 antibody from extracts of HCT116 Bax−/− cells transfected with HA-Bax; 1 μM arenobufagin 12 h; blots with Drp1 and Bax antibody
T1 sequence: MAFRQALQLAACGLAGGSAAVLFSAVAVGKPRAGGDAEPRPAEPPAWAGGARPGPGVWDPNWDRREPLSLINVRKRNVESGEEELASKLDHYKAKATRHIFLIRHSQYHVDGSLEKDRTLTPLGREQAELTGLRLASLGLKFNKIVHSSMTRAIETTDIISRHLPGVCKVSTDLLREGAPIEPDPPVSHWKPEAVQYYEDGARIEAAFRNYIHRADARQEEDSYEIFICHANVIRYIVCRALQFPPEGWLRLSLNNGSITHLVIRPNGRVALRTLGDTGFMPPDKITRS

[2] = molecular target: T1, PGAM5L (the long form of PGAM5) (human (endogenous in HCT116, SW480, Hela, A549)); test: co-IP; IP with anti-PGAM5 antibody from extracts of HCT116 WT cells; 1 μM arenobufagin 12 h (also with 20 μM iMAC2) or staurosporine; blots for Drp1 and Bax
[3] = molecular target: T1, PGAM5L (the long form of PGAM5) (human (endogenous in HCT116, SW480, Hela, A549)); test: co-IP; SW480, Hela and A549 cell lines (Supplementary Figure S1E); the precipitating antibody and the treatment are not told in the text shown
[4] = molecular target: T1, PGAM5L (the long form of PGAM5) (human (endogenous in HCT116, SW480, Hela, A549)); test: co-IP; IP with anti-PGAM5 antibody from extracts of HCT116 Bax+/+ xenograft tumor tissue of mice treated with arenobufagin or cisplatin; Triton X-100 extraction buffer; blots for Drp1 and Bax

Row | binding [1] | binding [2] | binding [3] | binding [4] | Substance
1 | binds | – | – | – | HA-Bax (from UniProt Q07812 1-192)
2 | – | binds | binds | binds | Bax (from UniProt Q07812 1-192)
